Experimental data as given in the supplement of paper PMC12823440, “Inhibitors supercharge kinase turnover through native proteolytic circuits” (Nature, 2025).
Structures can show the parent of a compound that is named as a salt. This is one part of the list. Hit calls seldom repeat between salt and free forms of one compound.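 In K562 cells expressing nanoluciferase-fused kinases, luminescence was recorded at 4 h intervals between 2 and 18 h, normalized as percent of control with DMSO at 100% and a positive control at 0%. A significant (2 sigma) signal drop marks a time point as decreased. The authors' rule for a hit is not shown and takes in more than the number of time points.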

Sequences of proteins named here, by UniProt entry; tags and fusion partners are left off. A change or cut given only in a name is not applied to a line headed by its entry.
UniProt Q9UM73: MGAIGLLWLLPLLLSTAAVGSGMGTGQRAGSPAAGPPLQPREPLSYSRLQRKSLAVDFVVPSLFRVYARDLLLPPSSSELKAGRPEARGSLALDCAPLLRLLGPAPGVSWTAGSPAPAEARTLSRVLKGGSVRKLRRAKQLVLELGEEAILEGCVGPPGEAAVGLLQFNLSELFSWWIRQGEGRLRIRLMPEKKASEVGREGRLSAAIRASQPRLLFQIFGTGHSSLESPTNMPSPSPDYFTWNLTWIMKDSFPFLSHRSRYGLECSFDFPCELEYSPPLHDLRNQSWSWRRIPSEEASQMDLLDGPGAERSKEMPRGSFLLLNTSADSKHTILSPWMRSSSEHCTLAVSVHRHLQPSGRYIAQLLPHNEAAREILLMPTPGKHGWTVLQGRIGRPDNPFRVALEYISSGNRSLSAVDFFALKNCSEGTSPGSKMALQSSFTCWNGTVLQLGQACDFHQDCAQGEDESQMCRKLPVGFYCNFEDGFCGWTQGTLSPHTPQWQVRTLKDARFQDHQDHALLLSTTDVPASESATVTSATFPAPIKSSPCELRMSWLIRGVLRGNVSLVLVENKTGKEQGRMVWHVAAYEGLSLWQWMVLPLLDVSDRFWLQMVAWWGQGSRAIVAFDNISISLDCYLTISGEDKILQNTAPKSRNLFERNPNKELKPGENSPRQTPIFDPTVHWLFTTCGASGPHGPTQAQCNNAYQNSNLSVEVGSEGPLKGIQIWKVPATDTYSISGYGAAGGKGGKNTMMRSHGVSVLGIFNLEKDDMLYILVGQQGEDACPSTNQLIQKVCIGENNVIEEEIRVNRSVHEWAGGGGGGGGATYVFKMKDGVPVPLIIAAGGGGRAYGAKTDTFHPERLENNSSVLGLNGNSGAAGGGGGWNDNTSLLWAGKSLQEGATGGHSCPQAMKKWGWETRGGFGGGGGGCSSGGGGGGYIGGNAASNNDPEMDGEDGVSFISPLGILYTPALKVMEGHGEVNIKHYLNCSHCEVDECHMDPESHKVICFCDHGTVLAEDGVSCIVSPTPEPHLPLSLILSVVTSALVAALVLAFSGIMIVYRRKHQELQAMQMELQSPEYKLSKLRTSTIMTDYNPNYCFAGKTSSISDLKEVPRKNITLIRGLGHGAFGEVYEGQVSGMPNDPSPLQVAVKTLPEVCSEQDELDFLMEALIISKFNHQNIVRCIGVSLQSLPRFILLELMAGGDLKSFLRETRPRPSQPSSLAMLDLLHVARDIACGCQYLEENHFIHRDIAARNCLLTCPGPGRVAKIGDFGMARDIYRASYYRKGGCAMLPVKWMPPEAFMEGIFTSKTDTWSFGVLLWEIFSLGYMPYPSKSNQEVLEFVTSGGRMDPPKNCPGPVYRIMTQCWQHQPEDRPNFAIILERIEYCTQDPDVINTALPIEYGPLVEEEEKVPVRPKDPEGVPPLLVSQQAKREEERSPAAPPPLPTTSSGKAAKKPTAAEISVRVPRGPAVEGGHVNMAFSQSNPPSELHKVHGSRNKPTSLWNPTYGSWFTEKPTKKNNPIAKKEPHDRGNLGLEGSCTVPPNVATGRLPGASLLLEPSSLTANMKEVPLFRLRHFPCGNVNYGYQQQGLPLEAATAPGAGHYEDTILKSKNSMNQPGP
UniProt P10398: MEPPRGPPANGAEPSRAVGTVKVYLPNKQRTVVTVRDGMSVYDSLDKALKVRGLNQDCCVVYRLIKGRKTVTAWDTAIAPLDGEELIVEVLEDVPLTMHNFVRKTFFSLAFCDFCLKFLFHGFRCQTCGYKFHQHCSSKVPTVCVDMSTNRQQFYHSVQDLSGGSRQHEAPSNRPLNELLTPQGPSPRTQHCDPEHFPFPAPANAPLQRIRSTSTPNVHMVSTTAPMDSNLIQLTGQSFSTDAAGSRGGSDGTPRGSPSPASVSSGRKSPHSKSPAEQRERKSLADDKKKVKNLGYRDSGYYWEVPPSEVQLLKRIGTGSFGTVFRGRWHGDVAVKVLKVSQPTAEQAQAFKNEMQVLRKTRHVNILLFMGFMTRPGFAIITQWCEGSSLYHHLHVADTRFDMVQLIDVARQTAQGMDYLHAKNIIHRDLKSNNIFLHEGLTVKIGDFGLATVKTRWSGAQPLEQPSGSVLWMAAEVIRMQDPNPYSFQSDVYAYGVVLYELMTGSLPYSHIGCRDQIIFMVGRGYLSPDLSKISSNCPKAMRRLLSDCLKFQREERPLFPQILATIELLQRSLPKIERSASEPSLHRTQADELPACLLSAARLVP
UniProt O14965: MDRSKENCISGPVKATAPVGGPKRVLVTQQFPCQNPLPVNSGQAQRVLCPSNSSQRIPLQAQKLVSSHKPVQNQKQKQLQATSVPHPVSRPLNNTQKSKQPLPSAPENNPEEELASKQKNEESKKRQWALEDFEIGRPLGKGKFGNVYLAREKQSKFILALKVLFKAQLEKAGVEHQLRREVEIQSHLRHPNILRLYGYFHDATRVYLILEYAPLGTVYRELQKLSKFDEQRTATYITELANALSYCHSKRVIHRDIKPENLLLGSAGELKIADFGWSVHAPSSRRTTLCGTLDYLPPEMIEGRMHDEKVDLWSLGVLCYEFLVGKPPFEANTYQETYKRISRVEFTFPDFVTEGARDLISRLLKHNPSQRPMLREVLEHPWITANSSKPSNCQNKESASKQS
UniProt Q96GD4, whole entry: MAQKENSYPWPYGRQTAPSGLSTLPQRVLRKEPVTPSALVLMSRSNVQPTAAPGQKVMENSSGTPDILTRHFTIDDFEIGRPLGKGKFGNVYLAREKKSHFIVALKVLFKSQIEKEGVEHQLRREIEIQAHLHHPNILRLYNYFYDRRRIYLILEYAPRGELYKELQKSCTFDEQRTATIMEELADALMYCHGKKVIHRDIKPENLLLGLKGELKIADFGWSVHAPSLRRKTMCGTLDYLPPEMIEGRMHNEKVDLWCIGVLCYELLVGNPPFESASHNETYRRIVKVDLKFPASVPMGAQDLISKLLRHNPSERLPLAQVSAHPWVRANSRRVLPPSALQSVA
UniProt Q9UQB9: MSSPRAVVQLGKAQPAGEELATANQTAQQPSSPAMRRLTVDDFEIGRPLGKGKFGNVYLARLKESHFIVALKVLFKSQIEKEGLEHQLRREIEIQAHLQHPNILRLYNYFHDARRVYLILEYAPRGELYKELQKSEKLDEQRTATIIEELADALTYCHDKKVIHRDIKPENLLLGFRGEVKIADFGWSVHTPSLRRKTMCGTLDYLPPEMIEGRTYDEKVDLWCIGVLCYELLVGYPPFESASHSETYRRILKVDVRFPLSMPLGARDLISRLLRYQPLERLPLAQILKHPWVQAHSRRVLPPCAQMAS
UniProt P51451: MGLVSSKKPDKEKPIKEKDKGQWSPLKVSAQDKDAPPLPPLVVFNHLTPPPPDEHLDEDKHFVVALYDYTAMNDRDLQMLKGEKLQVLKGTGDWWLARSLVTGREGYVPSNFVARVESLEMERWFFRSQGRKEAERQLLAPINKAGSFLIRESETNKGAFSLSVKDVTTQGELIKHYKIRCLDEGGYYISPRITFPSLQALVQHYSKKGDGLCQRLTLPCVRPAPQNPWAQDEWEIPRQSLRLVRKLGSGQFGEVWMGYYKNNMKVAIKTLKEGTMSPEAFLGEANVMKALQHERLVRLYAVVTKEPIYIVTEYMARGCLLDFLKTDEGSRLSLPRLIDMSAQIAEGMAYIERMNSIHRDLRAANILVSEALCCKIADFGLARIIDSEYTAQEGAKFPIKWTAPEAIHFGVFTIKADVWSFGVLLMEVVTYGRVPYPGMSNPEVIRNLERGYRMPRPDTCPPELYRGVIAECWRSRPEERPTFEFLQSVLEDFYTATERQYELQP
UniProt P51813: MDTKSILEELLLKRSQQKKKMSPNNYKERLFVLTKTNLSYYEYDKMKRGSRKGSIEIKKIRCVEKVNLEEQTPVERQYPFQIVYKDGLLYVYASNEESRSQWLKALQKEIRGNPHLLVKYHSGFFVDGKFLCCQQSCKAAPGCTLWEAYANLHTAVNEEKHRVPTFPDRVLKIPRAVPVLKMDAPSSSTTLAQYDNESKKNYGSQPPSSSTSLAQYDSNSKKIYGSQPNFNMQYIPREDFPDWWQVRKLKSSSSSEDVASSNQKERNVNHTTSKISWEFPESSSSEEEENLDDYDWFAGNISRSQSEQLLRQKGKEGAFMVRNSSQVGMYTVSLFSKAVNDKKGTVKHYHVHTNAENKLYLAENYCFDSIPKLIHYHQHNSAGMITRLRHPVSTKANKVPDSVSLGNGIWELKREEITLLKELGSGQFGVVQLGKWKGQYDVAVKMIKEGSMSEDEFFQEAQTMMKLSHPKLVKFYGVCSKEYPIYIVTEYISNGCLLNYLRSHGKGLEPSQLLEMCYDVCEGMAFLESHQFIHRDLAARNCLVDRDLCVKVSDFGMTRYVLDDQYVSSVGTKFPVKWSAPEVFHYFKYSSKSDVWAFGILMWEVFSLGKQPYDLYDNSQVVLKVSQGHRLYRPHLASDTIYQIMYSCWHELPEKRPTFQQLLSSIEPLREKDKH
UniProt P15056, whole entry, looked up: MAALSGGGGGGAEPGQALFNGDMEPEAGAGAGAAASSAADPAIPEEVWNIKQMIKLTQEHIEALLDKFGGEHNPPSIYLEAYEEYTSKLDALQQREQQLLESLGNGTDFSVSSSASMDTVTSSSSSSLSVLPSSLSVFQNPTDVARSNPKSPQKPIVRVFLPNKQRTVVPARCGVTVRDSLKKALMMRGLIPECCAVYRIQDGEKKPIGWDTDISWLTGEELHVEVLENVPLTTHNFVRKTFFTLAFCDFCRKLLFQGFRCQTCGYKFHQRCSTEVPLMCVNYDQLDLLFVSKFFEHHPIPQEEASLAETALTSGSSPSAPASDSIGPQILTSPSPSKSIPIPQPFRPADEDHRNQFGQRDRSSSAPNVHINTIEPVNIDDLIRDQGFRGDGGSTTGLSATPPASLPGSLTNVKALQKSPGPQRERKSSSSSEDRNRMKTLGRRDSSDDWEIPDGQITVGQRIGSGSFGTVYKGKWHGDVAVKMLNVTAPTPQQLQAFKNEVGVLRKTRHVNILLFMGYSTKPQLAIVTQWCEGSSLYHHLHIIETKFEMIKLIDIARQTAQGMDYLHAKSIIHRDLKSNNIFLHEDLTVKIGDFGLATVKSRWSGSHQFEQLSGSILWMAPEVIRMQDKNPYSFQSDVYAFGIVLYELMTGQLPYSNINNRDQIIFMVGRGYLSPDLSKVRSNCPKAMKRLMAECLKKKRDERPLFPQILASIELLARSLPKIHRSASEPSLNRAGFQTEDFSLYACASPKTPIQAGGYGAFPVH
UniProt Q06187: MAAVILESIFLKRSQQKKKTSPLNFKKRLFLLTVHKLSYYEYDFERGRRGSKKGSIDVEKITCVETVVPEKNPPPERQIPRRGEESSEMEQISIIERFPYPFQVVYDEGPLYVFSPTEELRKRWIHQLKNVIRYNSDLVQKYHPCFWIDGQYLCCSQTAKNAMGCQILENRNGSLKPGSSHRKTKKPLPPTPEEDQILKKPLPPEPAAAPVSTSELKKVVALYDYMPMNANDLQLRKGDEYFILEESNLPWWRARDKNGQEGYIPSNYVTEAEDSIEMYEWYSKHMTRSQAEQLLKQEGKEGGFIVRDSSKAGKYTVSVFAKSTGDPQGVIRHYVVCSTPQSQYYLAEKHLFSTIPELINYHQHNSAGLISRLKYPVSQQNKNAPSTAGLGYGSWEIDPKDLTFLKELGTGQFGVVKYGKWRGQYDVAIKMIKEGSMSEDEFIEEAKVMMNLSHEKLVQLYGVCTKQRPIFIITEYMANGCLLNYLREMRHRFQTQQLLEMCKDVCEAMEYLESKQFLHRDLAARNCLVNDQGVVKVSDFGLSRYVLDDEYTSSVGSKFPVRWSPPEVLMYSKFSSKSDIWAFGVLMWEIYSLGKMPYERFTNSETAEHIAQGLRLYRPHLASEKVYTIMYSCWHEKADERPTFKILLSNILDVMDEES

How the values were obtained:
Experiment in all cases: number of time points (of 5) at which kinase-Nluc abundance scored as decreased, DMSO-normalised (count); higher = more persistent destabilization
Conditions in all cases: K562; 2-18 h
ALK = ALK (UniProt Q9UM73)
ARAF = ARAF (UniProt P10398)
AURKA = AURKA (UniProt O14965)
AURKB = AURKB (UniProt Q96GD4)
AURKC = AURKC (UniProt Q9UQB9)
BLK = BLK (UniProt P51451)
BMX = BMX (UniProt P51813)
BRAF = BRAF (UniProt P15056)
BRAF_V600E = system: BRAF_V600E
BTK = BTK (UniProt Q06187)

Measured: number of time points

C[C@H](Nc1ncnc2[nH]cnc12)c1cc2ccc(F)cc2nc1-c1ccccn1 (10 µM)
0: all assays above

Oc1ccc(/C=C/c2cc(O)cc(O)c2)cc1 [Resveratrol] (10 µM)
0: all assays above

C[C@@H]1CN(c2cc(-c3n[nH]c4ccc(OC5(C)CC5)cc34)ncn2)C[C@H](C)O1 (10 µM)
0: all assays above

CCn1c(=O)c(-c2cc[nH]n2)cc2c(C)nc(N)nc21 [Voxtalisib] (10 µM)
1: BRAF_V600E
4: AURKA
0: all other assays above

Cc1ccn2c(C(=O)C(=O)c3ccccc3)c(-c3ccccc3)nc2c1 (10 µM)
0: all assays above

Cn1cc(-c2c[nH]c3ncnc(N4CCOCC4)c23)cc1C#N (10 µM)
0: all assays above

Cc1cc(Nc2ncnc3ccc(-c4ccc(CNCCS(C)(=O)=O)o4)cc23)ccc1Oc1ccn2ncnc2c1 [ARRY-380 (analog )] (2.5 µM)
0: all assays above

O=C(Nc1nc(=O)n(Cc2ccc(Cl)cc2)s1)c1ccc(Cl)cc1 (10 µM)
0: all assays above

Copied from the entries so far (2 entries):
Cc1cc(Nc2ncnc3ccc(-c4ccc(CNCCS(C)(=O)=O)o4)cc23)ccc1Oc1ccn2ncnc2c1 [ARRY-380 (analog )] (2.5 µM)
0: all assays above

O=C(Nc1nc(=O)n(Cc2ccc(Cl)cc2)s1)c1ccc(Cl)cc1 (10 µM)
0: all assays above

Continued.

Cc1ccc(-c2csc3ncnc(SCCC(=O)O)c23)cc1 (10 µM)
0: all assays above

Cc1cc(C)nc(NS(=O)(=O)c2ccc(NC(=S)NC(=O)COc3ccc(Br)cc3Cl)cc2)n1 (2.5 µM)
0: all assays above

C=CC(=O)Nc1cc(Nc2nccc(-n3cc(CN(C)C)c(-c4ccccc4)n3)n2)c(OC)cc1N1CCOCC1 [Lazertinib] (10 µM)
0: all assays above

COc1ccc(-c2c(C)nn3c(NCCN4CCOCC4)cc(C)nc23)cc1OC (10 µM)
0: all assays above

Cc1cccc2c3c(ccc12)C(=O)C1=C(OCC1C)C3=O (stereo not given) [Dihydroisotanshinone I] (2.5 µM)
0: all assays above

C=CC(=O)N1C(=O)CC(c2ccc(F)cc2)Sc2ccccc21 (stereo not drawn) [GSK-3β inhibitor 3] (10 µM)
1: ALK | AURKA | BMX | BRAF_V600E
0: all other assays above

COc1cc(-c2cn[nH]c2)ccc1C(=O)Nc1ccc2c(c1)CCNCC2 (10 µM)
0: all assays above

c1ccc(-c2nc(=NCCN3CCOCC3)sn2-c2ccccc2)cc1 [VP3.15 (dihydrobromide)] (10 µM)
0: all assays above

CNC(=O)c1ccccc1Nc1nc(Nc2ccc3c(c2OC)CCC[C@H](N2CCN(CCO)CC2)C3)ncc1Cl (10 µM)
1: ALK
2: BMX | BRAF_V600E
3: AURKA | BLK
4: AURKB
0: all other assays above

C=CC(=O)Nc1cc(-n2c(=O)ccc3cnc4ccc(-c5ccc(NS(C)(=O)=O)cc5)cc4c32)ccc1C (10 µM)
3: BRAF
0: all other assays above

Nc1ncnc2c1c(COc1cccc(Cl)c1)nn2C1CCOCC1 (10 µM)
0: all assays above

O=C(NC1CCOCC1)c1ccc(-c2cc(-c3c[nH]nc3-c3ccccn3)ccn2)cc1 (10 µM)
0: all assays above

C[C@H](NC(=O)[C@H]1NCC[C@@H]1O)c1ccc(-c2noc(CCC3CCCC3)n2)cc1 (10 µM)
0: all assays above

CC(C)=CCc1c(-c2ccc(O)cc2O)oc2c3c(cc(O)c2c1=O)OC(C)(C)C=C3 [Morusin] (2.5 µM)
0: all assays above
